The record followed here is paper doi:10.1101/2025.01.15.633165.

Amino acid sequences for entries named in this document (tags omitted). A change or cut given only in a name is not applied to a line headed by its entry.
UniProt F4JHB3: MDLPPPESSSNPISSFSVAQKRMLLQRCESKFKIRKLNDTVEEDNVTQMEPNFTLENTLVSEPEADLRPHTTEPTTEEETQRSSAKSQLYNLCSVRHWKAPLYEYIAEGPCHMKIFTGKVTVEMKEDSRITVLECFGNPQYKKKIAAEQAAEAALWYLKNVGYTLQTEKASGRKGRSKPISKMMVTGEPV
UniProt Q8H1D4: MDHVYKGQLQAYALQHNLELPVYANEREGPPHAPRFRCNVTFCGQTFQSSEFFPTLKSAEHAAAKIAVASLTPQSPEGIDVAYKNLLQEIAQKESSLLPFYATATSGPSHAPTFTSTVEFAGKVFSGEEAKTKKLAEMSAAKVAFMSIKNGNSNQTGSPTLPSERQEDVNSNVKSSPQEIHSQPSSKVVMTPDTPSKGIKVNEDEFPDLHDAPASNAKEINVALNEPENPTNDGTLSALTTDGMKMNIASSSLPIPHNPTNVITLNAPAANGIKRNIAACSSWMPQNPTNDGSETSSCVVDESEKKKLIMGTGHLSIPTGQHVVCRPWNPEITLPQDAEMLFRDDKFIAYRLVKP

No constants are given. Whether binding was seen depends on the method and setting. For some assays here: Binding can be weak; no strength is given.

For test [1], the target named is DRB7.2 (M1-V190) (A. thaliana) (UniProt F4JHB3). The test can be described thus: NMR titration.
The target is the same in test [2]. The experiment in a line: ITC. For orientation: ITC needs no label: the signal is the heat of the interaction.

For the substance DRB4 (1-355) (from UniProt Q8H1D4), the binding result in test [1] is on record as “binds”.
With “DRB4D1D2 (1-153) (from UniProt Q8H1D4) (domain or fragment)”, the binding entry in test [2] is reported as “no binding”.
